Laboratory results as given in patent US11919896B2, “[1,2,4]triazolo[1,5-a]pyridine compound as JAK inhibitor and use thereof” (Zhuhai United Laboratories Co., Ltd., priority 2018, dated 2024).

Assay: Pharmacokinetics (PK) test in mice
Format: in vivo, mice (C57BL/6)
Conditions: male C57BL/6 mice; iv 2 mg/kg, intragastric 15 mg/kg

In the case of `N#CC1(C(=O)N2CC3(CCC(c4cccc5nc(NC(=O)C6CC6)nn45)CC3)C2)CC1` [Compound 1-11], the T1/2 is reported as 2.99 h.
